Test results published in US20180118806A1 (MIT, published 2018).
Results are given in words; binding and its absence hold for the method and conditions named. Some results given as binding are weak or reduced against the parent protein; the word gives no strength.

Chains of the proteins cited; added tags and fusions are not shown. Residues count along the entry.
UniProt P13501, residues 24-91: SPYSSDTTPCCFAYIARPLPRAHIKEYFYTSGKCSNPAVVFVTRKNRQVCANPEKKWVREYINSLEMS

How the values were obtained:
Rantes (CCL5) [1] = target: Rantes (CCL5) (UniProt P13501); test: yeast 2-hybrid screen and yeast mating selection
Rantes (CCL5) [2] = target: Rantes (CCL5) (UniProt P13501); test: MST, dye-labelled variant at 5 nM, Rantes titrated

Binder | binding (Rantes (CCL5) [1]) | binding (Rantes (CCL5) [2])
SZ218a = CCR5QTY(218a) (receptor, labelled with the dye DY647P1 in the MST assay (site not stated), Dye-labelled in MST; fusion partner in yeast 2-hybrid not described; also called 5NA-43; CCR5_SZ218a DY647P1) MDYQVSSPIYDINYYTSEPCQKINVKQIAARQQPPQYSQTYTFGFTGNMQTTQTQINCKRLKSMTDIYLQNQAISDQFFQQTTPFWAHYAAAQWDFGNTMCQQQTGQYFTGYYSGTYYTTQQLNTFQEFFGLNNCSSSNRLDQAMQTTETQGMTHCCINPTTYAYVGEKFRNYLLVFFQKHIAKRFCKCCSIFQQEAPERASSVYTRSTGEQEISVGL | binds | binds
SZ352a = CCR5QTY(352a) (receptor, labelled with a dye in the MST assay (dye and site not stated for this variant), Full-length (352 aa) QTY variant of CCR5, used as control in MST; also called CC15-22; full-length (352 aa) CCR5^QTY variant) MDYQVSSPIYDINYYTSEPCQKINVKQIAARQQPPQYSQTFTYGFTGNMQTTQTQINCKRLKSMTDIYLQNQAISDQYYQQTTPYWAHYAAAQWDFGNTMCQQQTGQYFTGYYSGTYYTTQQTTDRYLAVVHAVFALKARTTTYGTTTSTTTWTTATYASQPGTTYTRSQKEGLHYTCSSHFPYSQYQFWKNFQTLKITIQGQVQPQQTMVTCYSGTQKTLLRCRNEKKRHRAVRQTFTTMTTYYQYWAPYNTTQQLNTFQEFFGLNNCSSSNRLDQAMQVTETQGMTHCCTNPTIYAYVGEKFRNYLLVFFQKHIAKRFCKCCSIFQQEAPERASSVYTRSTGEQEISVGL | binds | –
SZ190b = CCR5QTY(190b) (receptor, labelled with the dye DY647P1 in the MST assay (site not stated), Partial QTY variant of CCR5, 190 aa; Dye-labelled in MST; in the yeast 2-hybrid screen the fusion partner is not described; also called 5NA-17: Contig1; CCR5_SZ190b DY647P1) MDYQVSSPIYDINYYTSEPCQKINVKQIAARLQPPQYSQTFTFGFTGNMQTTQTQINCKRLKSMTDIYLQNQAISDQFFQQTTPYWAPYNTVQQQNTFQEFFGLNNCSSSNRLDQAMQVTETQGMTHCCTNPTIYAFVGEKFRNYLLVFFQKHIAKRFCKCCSIFQQEAPERASSVYTRSTGEQEISVGL | binds | binds
SZ162a = CCR5QTY(162a) (receptor) MDYQVSSPIYDINYYTSEPCQKINVKQIAARQQPPQYSQTYTFGYTGNMQTTQTQINCKRLKSMTDIYLQNQAISDQFFQQTTPFWAHYAAAQWDFGNTMCQQQTGQYFTGEKFRNYLLVFFQKHIAKRFCKCCSIFQQEAPERASSVYTRSTGEQEISVGL | binds | –
SZ185a = CCR5QTY(185a) (receptor) MDYQVSSPIYDINYYTSEPCQKINVKQIAARQQPPQYSQTFTFGYTNMQTTQTQTNCKRLKSMTDIYLQNQAISDQYYQFWAPYNTVQQLNTFQEFFGLNNCSSSNRLDQAMQTTETQGMTHCCTNPIIYAFTGEKFRNYLLVFFQKHIAKRFCKCCSIFQQEAPERASSVYTRSTGEQEISVGL | binds | –
SZ186a = CCR5QTY(186a) (receptor) MDYQVSSPIYDINYYTSEPCQKINVKQIAARQQPPQYSQTFTFGFTGNMQTTQTQINCKRLKSMTDIYQQNQATSDQYYQYWAPYNTVQQQNTFQEFFGLNNCSSSNRLDQAMQVTETQGMTHCCTNPTIYAYVGEKFRNYLLVFFQKHIAKRFCKCCSIFQQEAPERASSVYTRSTGEQEISVGL | binds | –
SZ190a = CCR5QTY(190a) (receptor) MDYQVSSPIYDINYYTSEPCQKINVKQIAARQQPPQYSQTYTFGFTGNMQTTQTQINCKRLKSMTDIYLQNQAISDQYFQQTTPYWAPYNTVQQLNTFQEFFGLNNCSSSNRLDQAMQTTETQGMTHCCINPIIYAFVGEKFRNYLLVFFQKHIAKRFCKCCSIFQQEAPERASSVYTRSTGEQEISVGL | binds | –
SZ190c = CCR5QTY(190c) (receptor) MDYQVSSPIYDINYYTSEPCQKINVKQIAARLQPPQYSQTFTFGYTGNMQVTQTQINCKRLKSMTDIYLQNQAISDQFFQQTTPYWAPYNTVQQQNTFQEFFGLNNCSSSNRLDQAMQVTETLGMTHCCTNPIIYAYTGEKFRNYLLVFFQKHIAKRFCKCCSIFQQEAPERASSVYTRSTGEQEISVGL | binds | –
SZ190d CCR5QTY(190d) (receptor) MDYQVSSPIYDINYYTSEPCQKINVKQIAARLQPPQYSQTFTFGFTGNMQTTQTQINCKRLKSMTDIYLQNQAISDQYYQQTTPYWAPYNTVQQQNTFQEFFGLNNCSSSNRLDQAMQVTETLGMTHCCTNPIIYAFTGEKFRNYLLVFFQKHIAKRFCKCCSIFQQEAPERASSVYTRSTGEQEISVGL | binds | –
